Results reported in PMC11041666.
Results are given in words; binding and its absence hold for the method and conditions named. Binding seen in cells or lysates may run through a third protein. Here binding means that the protein was enriched with, or labelled near, the bait; the list need not be complete. One block for each substance: values may come before it.

Amino acid sequences for entries named in this document (tags omitted).
UniProt Q01815: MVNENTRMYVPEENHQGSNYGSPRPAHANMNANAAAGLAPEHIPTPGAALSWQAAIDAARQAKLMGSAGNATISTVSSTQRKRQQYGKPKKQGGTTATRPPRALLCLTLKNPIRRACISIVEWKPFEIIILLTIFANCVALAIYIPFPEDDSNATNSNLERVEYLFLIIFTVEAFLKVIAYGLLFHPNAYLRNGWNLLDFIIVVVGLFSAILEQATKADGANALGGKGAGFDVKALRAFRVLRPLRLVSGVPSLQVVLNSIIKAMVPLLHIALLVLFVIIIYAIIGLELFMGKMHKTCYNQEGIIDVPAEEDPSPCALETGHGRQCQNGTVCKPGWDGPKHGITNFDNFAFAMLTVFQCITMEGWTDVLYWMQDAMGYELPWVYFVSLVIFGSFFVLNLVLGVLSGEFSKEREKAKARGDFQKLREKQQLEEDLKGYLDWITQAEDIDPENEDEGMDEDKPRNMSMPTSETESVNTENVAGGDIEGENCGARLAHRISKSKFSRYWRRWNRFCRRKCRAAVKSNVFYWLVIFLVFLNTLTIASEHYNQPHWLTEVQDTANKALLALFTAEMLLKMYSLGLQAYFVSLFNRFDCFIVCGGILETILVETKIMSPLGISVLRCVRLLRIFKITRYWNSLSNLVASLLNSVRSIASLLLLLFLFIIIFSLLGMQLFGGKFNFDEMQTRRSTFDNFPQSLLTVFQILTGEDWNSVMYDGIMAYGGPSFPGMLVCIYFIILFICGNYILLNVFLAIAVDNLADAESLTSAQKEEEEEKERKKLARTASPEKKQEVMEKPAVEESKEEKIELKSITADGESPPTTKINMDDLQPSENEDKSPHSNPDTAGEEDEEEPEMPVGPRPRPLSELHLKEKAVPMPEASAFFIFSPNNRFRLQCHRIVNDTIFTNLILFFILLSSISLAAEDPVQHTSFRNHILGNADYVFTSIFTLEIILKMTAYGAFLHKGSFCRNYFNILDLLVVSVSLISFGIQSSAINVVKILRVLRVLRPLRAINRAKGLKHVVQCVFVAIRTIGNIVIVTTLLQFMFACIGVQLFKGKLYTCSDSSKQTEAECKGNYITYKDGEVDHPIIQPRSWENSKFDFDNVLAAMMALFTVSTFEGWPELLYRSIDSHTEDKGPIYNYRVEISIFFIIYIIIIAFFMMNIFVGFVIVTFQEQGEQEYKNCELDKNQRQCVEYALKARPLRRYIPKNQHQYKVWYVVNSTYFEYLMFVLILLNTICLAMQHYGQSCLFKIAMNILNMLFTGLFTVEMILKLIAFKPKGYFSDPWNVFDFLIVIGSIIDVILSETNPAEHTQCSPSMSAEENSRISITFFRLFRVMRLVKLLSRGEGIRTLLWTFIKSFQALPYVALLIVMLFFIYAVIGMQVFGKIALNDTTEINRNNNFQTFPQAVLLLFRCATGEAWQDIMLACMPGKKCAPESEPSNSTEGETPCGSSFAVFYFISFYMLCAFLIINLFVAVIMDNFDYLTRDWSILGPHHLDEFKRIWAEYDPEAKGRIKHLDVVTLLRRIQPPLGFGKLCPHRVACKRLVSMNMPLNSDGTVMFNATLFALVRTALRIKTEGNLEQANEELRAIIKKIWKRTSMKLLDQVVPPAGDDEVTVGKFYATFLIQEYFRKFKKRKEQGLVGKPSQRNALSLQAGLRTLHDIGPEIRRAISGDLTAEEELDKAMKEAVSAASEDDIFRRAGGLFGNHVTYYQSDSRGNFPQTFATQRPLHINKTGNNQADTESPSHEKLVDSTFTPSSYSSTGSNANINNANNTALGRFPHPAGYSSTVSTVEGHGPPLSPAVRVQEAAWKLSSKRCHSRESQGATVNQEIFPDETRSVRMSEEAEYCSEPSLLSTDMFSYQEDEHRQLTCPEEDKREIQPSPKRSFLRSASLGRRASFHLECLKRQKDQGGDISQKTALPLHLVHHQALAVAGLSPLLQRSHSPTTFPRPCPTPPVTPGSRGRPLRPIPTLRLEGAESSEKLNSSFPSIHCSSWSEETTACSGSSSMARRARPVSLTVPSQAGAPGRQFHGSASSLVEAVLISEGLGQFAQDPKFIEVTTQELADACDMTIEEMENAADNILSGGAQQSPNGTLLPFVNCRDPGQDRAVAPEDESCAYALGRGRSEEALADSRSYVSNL
UniProt P97414: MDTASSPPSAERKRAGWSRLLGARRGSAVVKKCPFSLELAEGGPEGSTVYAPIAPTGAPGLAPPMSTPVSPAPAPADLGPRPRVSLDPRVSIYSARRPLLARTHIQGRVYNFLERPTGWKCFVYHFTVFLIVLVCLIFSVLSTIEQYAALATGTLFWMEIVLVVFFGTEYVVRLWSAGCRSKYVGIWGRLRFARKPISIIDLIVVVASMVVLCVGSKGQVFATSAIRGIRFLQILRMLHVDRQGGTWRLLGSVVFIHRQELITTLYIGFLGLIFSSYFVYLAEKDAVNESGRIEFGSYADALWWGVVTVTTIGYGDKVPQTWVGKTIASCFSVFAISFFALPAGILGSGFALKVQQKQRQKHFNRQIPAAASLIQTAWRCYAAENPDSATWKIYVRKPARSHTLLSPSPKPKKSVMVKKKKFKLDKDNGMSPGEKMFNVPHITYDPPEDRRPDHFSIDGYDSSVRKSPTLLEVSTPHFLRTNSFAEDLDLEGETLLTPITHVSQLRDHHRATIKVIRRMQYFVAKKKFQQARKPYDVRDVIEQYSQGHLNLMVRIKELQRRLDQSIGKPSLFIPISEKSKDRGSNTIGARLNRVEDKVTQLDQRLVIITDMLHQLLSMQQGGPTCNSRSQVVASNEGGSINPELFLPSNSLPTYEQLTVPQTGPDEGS
UniProt O35219: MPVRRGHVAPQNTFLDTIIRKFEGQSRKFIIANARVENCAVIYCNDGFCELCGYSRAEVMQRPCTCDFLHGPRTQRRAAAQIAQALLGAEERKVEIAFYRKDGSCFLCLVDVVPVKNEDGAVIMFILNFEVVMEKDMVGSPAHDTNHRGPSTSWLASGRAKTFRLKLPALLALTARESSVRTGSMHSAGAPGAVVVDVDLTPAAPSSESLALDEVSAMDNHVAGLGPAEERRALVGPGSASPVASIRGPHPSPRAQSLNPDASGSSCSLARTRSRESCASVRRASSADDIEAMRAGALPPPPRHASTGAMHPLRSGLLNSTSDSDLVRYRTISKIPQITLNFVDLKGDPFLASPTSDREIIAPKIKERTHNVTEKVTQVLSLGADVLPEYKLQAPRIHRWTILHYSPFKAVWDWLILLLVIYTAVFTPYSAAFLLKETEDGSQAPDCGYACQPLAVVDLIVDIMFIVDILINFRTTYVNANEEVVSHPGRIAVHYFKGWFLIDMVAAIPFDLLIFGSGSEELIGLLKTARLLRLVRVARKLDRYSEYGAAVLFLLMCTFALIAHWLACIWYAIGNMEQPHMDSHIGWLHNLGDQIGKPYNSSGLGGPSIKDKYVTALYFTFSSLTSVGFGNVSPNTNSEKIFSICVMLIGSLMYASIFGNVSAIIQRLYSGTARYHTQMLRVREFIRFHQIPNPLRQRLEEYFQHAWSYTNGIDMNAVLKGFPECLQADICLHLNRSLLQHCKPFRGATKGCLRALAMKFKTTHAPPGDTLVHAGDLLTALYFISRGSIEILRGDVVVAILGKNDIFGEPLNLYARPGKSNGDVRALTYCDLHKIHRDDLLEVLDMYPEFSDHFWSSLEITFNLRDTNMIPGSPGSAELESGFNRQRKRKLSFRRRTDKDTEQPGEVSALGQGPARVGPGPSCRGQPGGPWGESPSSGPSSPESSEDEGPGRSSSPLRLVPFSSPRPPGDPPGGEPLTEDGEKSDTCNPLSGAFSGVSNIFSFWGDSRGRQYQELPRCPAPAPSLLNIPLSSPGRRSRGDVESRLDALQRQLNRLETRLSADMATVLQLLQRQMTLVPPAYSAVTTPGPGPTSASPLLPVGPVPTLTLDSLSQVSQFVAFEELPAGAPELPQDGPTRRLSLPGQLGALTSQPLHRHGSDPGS
UniProt P23242: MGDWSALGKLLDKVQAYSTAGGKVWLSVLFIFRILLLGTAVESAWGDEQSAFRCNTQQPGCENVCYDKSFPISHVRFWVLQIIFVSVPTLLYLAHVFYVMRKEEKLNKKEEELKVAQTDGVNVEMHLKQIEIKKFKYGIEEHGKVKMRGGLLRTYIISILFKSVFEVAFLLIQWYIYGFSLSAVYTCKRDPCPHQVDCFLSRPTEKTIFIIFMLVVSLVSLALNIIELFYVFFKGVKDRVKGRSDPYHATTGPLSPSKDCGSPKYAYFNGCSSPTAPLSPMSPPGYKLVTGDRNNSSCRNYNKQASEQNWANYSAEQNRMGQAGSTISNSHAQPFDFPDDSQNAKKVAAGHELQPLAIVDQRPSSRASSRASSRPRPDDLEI
UniProt Q80YT7: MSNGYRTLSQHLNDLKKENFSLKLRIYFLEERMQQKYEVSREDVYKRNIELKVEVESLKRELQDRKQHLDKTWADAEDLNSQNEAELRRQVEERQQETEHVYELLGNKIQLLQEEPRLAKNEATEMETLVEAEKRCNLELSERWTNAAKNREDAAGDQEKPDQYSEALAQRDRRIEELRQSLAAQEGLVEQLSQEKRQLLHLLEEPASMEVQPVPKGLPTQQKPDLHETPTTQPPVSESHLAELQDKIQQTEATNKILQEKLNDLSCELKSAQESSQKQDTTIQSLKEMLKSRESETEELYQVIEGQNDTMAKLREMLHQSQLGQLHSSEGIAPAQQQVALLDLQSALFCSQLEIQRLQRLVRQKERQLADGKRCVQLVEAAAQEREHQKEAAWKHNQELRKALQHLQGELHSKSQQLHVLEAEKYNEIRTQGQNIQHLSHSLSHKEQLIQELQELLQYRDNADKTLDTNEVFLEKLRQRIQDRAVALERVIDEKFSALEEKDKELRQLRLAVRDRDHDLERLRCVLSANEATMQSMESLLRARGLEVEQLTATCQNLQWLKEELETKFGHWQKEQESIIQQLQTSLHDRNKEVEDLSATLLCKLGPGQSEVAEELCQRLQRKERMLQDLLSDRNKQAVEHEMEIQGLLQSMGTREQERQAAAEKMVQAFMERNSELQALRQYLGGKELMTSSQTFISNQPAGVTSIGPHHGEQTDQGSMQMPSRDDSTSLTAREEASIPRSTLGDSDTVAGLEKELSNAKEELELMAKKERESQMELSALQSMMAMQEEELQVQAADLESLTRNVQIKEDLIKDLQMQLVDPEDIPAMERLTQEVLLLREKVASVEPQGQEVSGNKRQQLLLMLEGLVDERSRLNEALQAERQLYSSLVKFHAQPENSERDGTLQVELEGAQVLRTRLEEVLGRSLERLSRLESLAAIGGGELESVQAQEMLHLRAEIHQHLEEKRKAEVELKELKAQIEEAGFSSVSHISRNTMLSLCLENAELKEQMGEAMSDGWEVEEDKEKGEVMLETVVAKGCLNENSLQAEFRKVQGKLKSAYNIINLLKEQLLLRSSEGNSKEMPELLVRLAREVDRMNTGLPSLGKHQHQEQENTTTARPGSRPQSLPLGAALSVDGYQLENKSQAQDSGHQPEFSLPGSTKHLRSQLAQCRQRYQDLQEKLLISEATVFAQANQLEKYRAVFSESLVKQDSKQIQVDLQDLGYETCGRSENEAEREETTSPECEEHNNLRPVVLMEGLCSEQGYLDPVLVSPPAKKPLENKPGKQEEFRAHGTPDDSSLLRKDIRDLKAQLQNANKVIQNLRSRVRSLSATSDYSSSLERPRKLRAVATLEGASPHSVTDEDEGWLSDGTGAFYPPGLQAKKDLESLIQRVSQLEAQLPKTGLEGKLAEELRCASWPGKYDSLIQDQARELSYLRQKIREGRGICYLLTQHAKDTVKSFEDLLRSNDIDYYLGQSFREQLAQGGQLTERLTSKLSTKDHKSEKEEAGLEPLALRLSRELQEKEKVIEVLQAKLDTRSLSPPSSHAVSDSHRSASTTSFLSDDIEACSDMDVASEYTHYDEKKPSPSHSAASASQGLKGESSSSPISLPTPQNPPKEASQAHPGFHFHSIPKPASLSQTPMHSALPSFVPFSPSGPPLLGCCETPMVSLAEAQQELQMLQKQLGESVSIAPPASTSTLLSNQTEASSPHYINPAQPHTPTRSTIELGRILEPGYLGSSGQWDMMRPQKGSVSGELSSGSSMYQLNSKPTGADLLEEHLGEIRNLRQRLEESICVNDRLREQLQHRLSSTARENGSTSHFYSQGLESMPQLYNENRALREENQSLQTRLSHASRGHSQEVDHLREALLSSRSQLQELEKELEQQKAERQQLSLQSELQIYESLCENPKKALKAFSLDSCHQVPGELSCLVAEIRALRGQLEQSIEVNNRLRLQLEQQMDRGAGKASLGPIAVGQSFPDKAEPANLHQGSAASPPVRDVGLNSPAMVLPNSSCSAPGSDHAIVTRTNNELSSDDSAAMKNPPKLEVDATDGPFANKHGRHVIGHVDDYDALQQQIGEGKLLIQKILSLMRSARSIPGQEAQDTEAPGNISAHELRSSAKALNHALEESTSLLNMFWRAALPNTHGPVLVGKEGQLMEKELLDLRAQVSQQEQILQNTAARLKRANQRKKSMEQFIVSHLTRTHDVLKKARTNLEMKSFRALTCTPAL

Tests used:
[1] = target: Cacna1c (Cav1.2) (mouse (endogenous in murine cardiac tissue)) (UniProt Q01815); assay: affinity purification with mass spectrometry; IP of the endogenous channel with 2 µg channel antibody from 3 mg membrane-enriched mouse heart lysate (1% NP-40, 1% sodium deoxycholate), overnight at 4 °C, Dynabeads Protein G, quadruplicate; LC-MS/MS; significant interactors against control by volcano plot
[2] = target: Kcnq1 (Kv7.1/Kcnq1) (mouse (endogenous in murine cardiac tissue)) (UniProt P97414); assay: as above
[3] = target: Kcnh2 (Kv11.1/ERG) (mouse (endogenous in murine cardiac tissue)) (UniProt O35219); assay: as above
[4] = target: Hcn4 (HCN4) (mouse (endogenous in murine cardiac tissue)) (UniProt O70507); assay: as above
[5] = target: T1, Kcnj2 (Kir2.1) (mouse (endogenous in murine cardiac tissue)) (UniProt P35561); assay: as above
T1 sequence: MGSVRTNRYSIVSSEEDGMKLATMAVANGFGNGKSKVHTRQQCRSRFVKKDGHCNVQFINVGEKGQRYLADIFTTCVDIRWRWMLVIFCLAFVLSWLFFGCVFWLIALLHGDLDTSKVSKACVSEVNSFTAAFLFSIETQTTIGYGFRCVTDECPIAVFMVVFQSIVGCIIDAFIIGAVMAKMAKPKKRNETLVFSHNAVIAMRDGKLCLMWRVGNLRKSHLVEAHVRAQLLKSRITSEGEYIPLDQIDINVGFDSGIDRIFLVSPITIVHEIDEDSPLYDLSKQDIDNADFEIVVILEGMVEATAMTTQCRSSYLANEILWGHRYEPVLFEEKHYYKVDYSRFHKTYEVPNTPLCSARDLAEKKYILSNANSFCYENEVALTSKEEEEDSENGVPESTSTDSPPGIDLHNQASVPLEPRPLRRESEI

[6] = target: T2, Kcnd2 (Kv4.2) (mouse (endogenous in murine cardiac tissue)) (UniProt Q9Z0V2); assay: as above
T2 sequence: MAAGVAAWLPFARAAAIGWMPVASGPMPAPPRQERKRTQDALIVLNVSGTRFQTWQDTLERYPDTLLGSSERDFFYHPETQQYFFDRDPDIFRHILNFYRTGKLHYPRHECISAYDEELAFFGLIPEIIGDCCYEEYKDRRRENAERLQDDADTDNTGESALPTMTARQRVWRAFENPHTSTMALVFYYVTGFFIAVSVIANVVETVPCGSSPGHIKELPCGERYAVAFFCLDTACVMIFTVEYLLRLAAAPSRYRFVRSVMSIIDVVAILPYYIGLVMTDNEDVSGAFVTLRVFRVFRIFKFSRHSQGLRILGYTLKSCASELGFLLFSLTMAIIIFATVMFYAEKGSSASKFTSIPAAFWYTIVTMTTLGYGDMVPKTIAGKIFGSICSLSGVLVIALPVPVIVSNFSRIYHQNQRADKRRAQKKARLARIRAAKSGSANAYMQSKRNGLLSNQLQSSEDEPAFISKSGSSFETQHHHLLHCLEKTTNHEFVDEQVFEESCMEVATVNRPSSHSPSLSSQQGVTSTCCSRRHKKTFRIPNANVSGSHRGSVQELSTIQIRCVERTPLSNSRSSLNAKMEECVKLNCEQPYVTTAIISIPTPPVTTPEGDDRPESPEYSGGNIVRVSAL

[7] = target: T3, Kcnj5 (Kir3.4) (mouse (endogenous in murine cardiac tissue)) (UniProt P48545); assay: as above
T3 sequence: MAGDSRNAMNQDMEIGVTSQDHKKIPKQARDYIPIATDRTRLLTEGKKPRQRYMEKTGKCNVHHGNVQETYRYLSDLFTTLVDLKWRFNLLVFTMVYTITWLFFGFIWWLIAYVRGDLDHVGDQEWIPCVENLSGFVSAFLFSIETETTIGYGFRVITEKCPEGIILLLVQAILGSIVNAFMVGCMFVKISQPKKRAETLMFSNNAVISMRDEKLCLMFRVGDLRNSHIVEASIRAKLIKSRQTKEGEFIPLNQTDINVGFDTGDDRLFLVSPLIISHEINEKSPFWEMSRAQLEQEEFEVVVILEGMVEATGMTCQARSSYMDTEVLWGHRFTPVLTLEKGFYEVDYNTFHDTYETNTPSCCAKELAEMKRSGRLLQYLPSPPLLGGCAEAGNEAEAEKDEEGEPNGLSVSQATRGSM

[8] = target: Gja1 (Cx43) (mouse (endogenous in murine cardiac tissue)) (UniProt P23242); assay: as above
[9] = target: Inf2 (mouse (endogenous in murine cardiac tissue)) (UniProt Q0GNC1); assay: affinity purification with mass spectrometry; triplicate IPs from murine cardiac tissue with antibodies against Inf2 or IgG; LC-MS/MS
[10] = target: Scn5a (Nav1.5) (mouse (endogenous in murine cardiac tissue)) (UniProt Q9JJV9); assay: affinity purification with mass spectrometry; IP of the endogenous channel with 2 µg channel antibody from 3 mg membrane-enriched mouse heart lysate (1% NP-40, 1% sodium deoxycholate), overnight at 4 °C, Dynabeads Protein G, quadruplicate; LC-MS/MS; significant interactors against control by volcano plot

Substance: Nlrx1 (from UniProt Q3TL44 87-975)
binding [3]: binds
binding [2]: binds
binding [4]: binds

Substance: Nrap (from UniProt Q80XB4 1-1728)
binding [2]: binds

Substance: Myzap (from UniProt Q3UIJ9)
binding [3]: binds
binding [6]: binds
binding [7]: binds

Substance: gelsolin (Gsn) (from UniProt P13020 26-780)
binding [10]: binds

Substance: Cacnb1 (from UniProt Q8R3Z5 1-597)
binding [1]: binds

Substance: Kcnh2 (Kv11.1/ERG) (from UniProt O35219 1-1162)
binding [2]: binds

Substance: Inf2 (from UniProt Q0GNC1 1-1273)
binding [1]: binds

Further lines, with some results ahead:

binding [2]: binds
Substance: Gja1 (Cx43) (from UniProt P23242 1-382)
binding [1]: binds

binding [5]: binds
binding [2]: binds
binding [4]: binds
Substance: Pde4dip (from UniProt Q80YT7 1-2224)

binding [8]: binds
binding [9]: binds
Substance: Cacna1c (Cav1.2) (from UniProt Q01815 1-2139)

binding [2]: binds
binding [8]: binds
Substance: Nos1ap (from UniProt Q9D3A8 1-503)
